# Data published in PubChem BioAssay AID540276 (National Center for Advancing Translational Sciences (NCATS), 2011).
# Screen size: about 300,000 compounds; about 5,400 (1.8%) were called active. Inconclusive results, whose numbers are uncertain, are shown with a selection of clear calls. Calls come from the whole dose curve; tested in HEK293 cells. Potencies of inconclusive entries are doubtful fits and often do not repeat.
# Experiment: qHTS for inhibitors of binding or entry into cells for Marburg Virus
# Conditions: Marburg virus pseudotyped entry inhibition, cell reporter; series mostly up to 37.8 µM
# Potency is the fitted concentration of half-maximal effect.
row,Compound,Potency
1,O=C(O)c1ccccc1NS(=O)(=O)c1cccc2cccnc12,inactive
2,COc1cccc(N2C(=NC(=O)C3CCCCC3)SC3CS(=O)(=O)CC32)c1 (stereo not given),"inconclusive: 3.16 µM [inhibitor, single point]"
3,CCOc1ccc(CCNC(c2cccc(Cl)c2)c2nnc(-c3ccccc3)o2)cc1OCC (stereo not given),"inconclusive: 17.8 µM [inhibitor, single point]"
4,Cc1cnnn1-c1cccc([N+](=O)[O-])c1,inactive
5,N#Cc1c(NC(=O)CSc2ncnc3c2cnn3-c2ccccc2Cl)sc2c1CCCC2,"inconclusive: 35.5 µM [inhibitor, single point]"
6,O=C(NCc1ccccc1)c1cc2nc(C3CC3)cc(C(F)(F)F)n2n1,"inconclusive: 7.3 µM [activator, single point]"
7,CC(C)C(=O)Nc1cccc(S(=O)(=O)c2cccc(NC(=O)C(C)C)c2)c1,"inconclusive: 11.2 µM [inhibitor, partial curve, poor fit]"
8,CCc1ccc(-c2[nH]c3c(c2-c2sc(C)c(C(=O)OC)c2O)c(=O)[nH]c(=O)n3C)cc1,"inconclusive: 6.31 µM [inhibitor, single point]"
9,O=C(Nc1ccc2c(c1)OCO2)c1cc2ncc(Br)cn2n1,inactive
10,COc1cc(C(N)=O)ccc1OCc1ccccc1,"inconclusive: 35.5 µM [inhibitor, single point]"
11,Oc1ccc(Cl)cc1C1=NNC(c2ccc(Cl)cc2)C1 (stereo not given),inactive
12,COc1cccc(NC(=O)NCc2ccccc2F)c1,"inconclusive: 25.9 µM [activator, single point]"
13,COc1cccc(-c2nc(SCC(=O)Nc3ccc4c(c3)OCCO4)c(-c3ccccc3)[nH]2)c1,"inconclusive: 7.94 µM [inhibitor, partial curve, poor fit]"
14,CCc1c(C)nc2ncnn2c1Nc1ccc(C)cc1,"inconclusive: 1.58 µM [inhibitor, partial curve, poor fit]"
15,CCOc1ccc2c(c1)OC(c1ccc(OC)cc1)(C(F)(F)F)NC2=O (stereo not given),"inconclusive: 6.31 µM [inhibitor, single point]"
16,O=C(NCCn1cc(SCc2ccc(Cl)cc2)c2ccccc21)c1cccs1,inactive
17,CCOc1ccccc1N1CCN(C(=O)c2cccs2)CC1,inactive
18,Oc1ccccc1C1=Nc2nc3ccccc3n2C(c2ccccc2)C1 (stereo not given),"inconclusive: 3.16 µM [activator, partial curve, poor fit]"
19,O=C(NC(NC(=S)Nc1c(Cl)cc(Cl)cc1Cl)C(Cl)(Cl)Cl)OCc1ccccc1 (stereo not given),"inconclusive: 35.5 µM [inhibitor, single point]"
20,O=C(Nc1nc2ccc(F)cc2s1)Oc1ccccc1,inactive
21,CC1(C)CC2CC(C)(CN2C(=O)COc2cccc3ccccc23)C1 (stereo not given),"inconclusive: 28.2 µM [inhibitor, single point]"
22,COC(=O)c1ccc([C@H]2/C(=C(\O)c3ccc(OC)c(C)c3)C(=O)C(=O)N2c2cc(C)on2)cc1,"inconclusive: 12.6 µM [activator, single point]"

row,Compound,Potency
1,Fc1ccc(CNc2nc(-c3cccnc3)nc3ccccc23)cc1,"inconclusive: 35.5 µM [inhibitor, partial curve, poor fit]"
2,COc1ccc(CCNC(=O)c2c(O)nc3c(C)cccn3c2=O)cc1,inactive
3,CCOC(=O)/C(C#N)=C/c1c(N2CCN(Cc3ccc4c(c3)OCO4)CC2)nc2c(C)cccn2c1=O,"inconclusive: 20 µM [inhibitor, single point]"
4,Clc1ccc(-c2cc3ccccc3nc2N2CCCC2)cc1,"inconclusive: 25.1 µM [inhibitor, single point]"
5,Cc1nc([N+](=O)[O-])c(N2CCN(C)CC2)n1Cc1ccccc1,"inconclusive: 3.98 µM [activator, single point]"
6,Cc1ccc(-c2noc(/C=C/c3ccccc3)n2)cc1,inactive
7,COc1ccc(/C=C/c2cc(-c3ccc(C)cc3)o[n+]2C)cc1,"inconclusive: 3.55 µM [inhibitor, partial curve, poor fit]"
8,CCOC(=O)c1ccc(-n2c(C)nc3c(cnn3-c3ccc(Cl)cc3)c2=O)cc1,inactive
9,CCOCCCNC(=O)c1[nH]c2cc(C)ccc2c1Sc1ccc(Cl)cc1,"inconclusive: 7.08 µM [inhibitor, partial curve, poor fit]"
10,C=CCOc1ccc(/C=C/C(C)=N\O)cc1,inactive
11,CCNC(=O)N1CCCC(C(=O)c2ccc(OC)c(OC)c2)C1 (stereo not given),"inconclusive: 2.82 µM [inhibitor, partial curve, poor fit]"
12,Cc1cnc(CN(C)C(=O)CC2C(=O)NCCN2Cc2cccc(F)c2F)[nH]1 (stereo not given),"inconclusive: 10 µM [activator, single point]"
13,O=c1c2c3c(sc2n(CCN2CCCCC2)c(=O)n1Cc1ccco1)CCCCC3,active: 16.4 µM
14,CCOC(=O)c1sc2ncnc(NCC(c3cccs3)N(C)C)c2c1C (stereo not given),"inconclusive: 32.6 µM [inhibitor, single point]"
15,Cc1n[nH]c(C)c1S(=O)(=O)N(CC(=O)Nc1ccc(C(F)(F)F)cc1)c1ccc(C(C)C)cc1,"inconclusive: 15.8 µM [inhibitor, single point]"
16,COc1ccc(CN(C)C(=O)c2ccc(OCC(=O)Nc3cccc(C(F)(F)F)c3)c(OC)c2)c(OC)c1,"inconclusive: 35.5 µM [inhibitor, single point]"
17,CCC(=O)c1ccc(OC(=O)c2cccs2)cc1,"inconclusive: 35.5 µM [activator, single point]"
18,O=C(O)/C=C/c1cn(-c2ccccc2)nc1-c1cc2ccccc2o1,"inconclusive: 5.62 µM [activator, single point]"
19,Cc1ccc(CS(=O)(=O)c2ncc(Cl)c(C(=O)Nc3nc4ccc(C)cc4s3)n2)cc1,"inconclusive: 35.5 µM [inhibitor, single point]"
20,COc1ccc(C2=C/C(=C\c3cccc(OC(C)=O)c3)C(=O)O2)cc1,inactive
21,COc1ccc(C(=O)Cc2cnn(-c3ccccc3)c2)c(O)c1,"inconclusive: 35.5 µM [inhibitor, single point]"
22,CN(C)/C=C(/C(=O)c1ccc(F)cc1)S(=O)(=O)c1ccc(F)cc1,"inconclusive: 35.5 µM [inhibitor, single point]"

# Molecules from the list above with a furan ring, fused or not:
row,Compound,Potency
13,O=c1c2c3c(sc2n(CCN2CCCCC2)c(=O)n1Cc1ccco1)CCCCC3,active: 16.4 µM
18,O=C(O)/C=C/c1cn(-c2ccccc2)nc1-c1cc2ccccc2o1,"inconclusive: 5.62 µM [activator, single point]"

# Next part.

row,Compound,Potency
1,N#Cc1c(-c2cccc(F)c2)cc(-c2ccccc2)nc1Br,"inconclusive: 29.1 µM [inhibitor, partial curve, poor fit]"
2,CCCCc1ccc(NC(=O)c2ccc(N(C)S(C)(=O)=O)cc2)cc1,"inconclusive: 11.2 µM [inhibitor, partial curve, poor fit]"
3,COC(=O)c1ccc(/C=C/C(=O)OCC(=O)NCc2cccs2)cc1,"inconclusive: 4.47 µM [activator, partial curve, poor fit]"
4,CCN(CC)CCCn1c(C)cc2c(c1=O)C(c1cccc(Cl)c1)C(C#N)=C(N)O2 (stereo not given),active: 11.2 µM
5,Cc1cc([N+](=O)[O-])ccc1NC(=O)CN1C2CCC1CC(NC(=O)NC13CC4CC(CC(C4)C1)C3)C2 (stereo not given),"inconclusive: 2.82 µM [inhibitor, full curve, poor fit]"
6,CC(=O)Nc1ccc(S(=O)(=O)N2CCC(NC(=O)c3ccco3)CC2)cc1,"inconclusive: 0.231 µM [activator, full curve, poor fit]"
7,COc1ccc([N+](=O)[O-])cc1NCC(=O)c1ccc(C)cc1,"inconclusive: 15.8 µM [inhibitor, single point]"
8,O=C(Nc1cc(S(=O)(=O)N2CCOCC2)ccc1OCC(F)(F)F)C1=COCCO1,inactive
9,Cc1ccc(S(=O)(=O)n2[nH]c(=O)c(CCO)c2C)cc1,"inconclusive: 7.94 µM [activator, partial curve, poor fit]"
10,CCCn1c(=O)[nH]c(=O)c2c1nc(-c1ccc(OC)c(Br)c1)n2CCOC,inactive
11,Cc1ccc(/C=C/C(=O)CCC(=O)O)cc1,inactive
12,O=C(CC(=O)c1cc(Cl)ccc1O)c1ccccc1,"inconclusive: 18.3 µM [inhibitor, partial curve, poor fit]"
13,O=[N+]([O-])c1ccc(CSc2ccc(S(=O)(=O)N3CCOCC3)cn2)cc1,"inconclusive: 3.55 µM [activator, single point]"
14,C=CCSc1nc2c(c(=N)n1CC=C)C1CCCC1S2 (stereo not given),"inconclusive: 25.9 µM [inhibitor, partial curve, poor fit]"
15,O=C(C=Cc1ccccc1)c1c[nH]c2ccccc2c1=O,"inconclusive: 12.6 µM [inhibitor, partial curve, poor fit]"
16,Cc1cc(/C=C2/SC(=O)NC2=O)c(C)n1-c1ccc(N2CCOCC2)cc1,"inconclusive: 31.6 µM [inhibitor, single point]"
17,COC(=O)C1=C(C)N(Cc2ccccc2)C(=NCC(C)C)NC1c1cccc(C(F)(F)F)c1 (stereo not given),inactive
18,Cc1ccc(C(C(=O)NC2CCCCC2)N(CC2CCCO2)C(=O)CNC(=O)c2cccs2)cc1 (stereo not given),"inconclusive: 2.91 µM [inhibitor, full curve, poor fit]"
19,COc1ccc(N2CCN(C(=O)c3cc(-c4cc(OC)ccc4OC)nc4ccccc34)CC2)cc1,"inconclusive: 2.51 µM [inhibitor, partial curve, poor fit]"
20,O=C(NCc1ccc(OC(F)(F)F)cc1)C1CC(c2ccccc2[N+](=O)[O-])=NO1 (stereo not given),inactive
21,CC(OC(=O)c1cc(S(=O)(=O)Nc2ccc(F)cc2)ccc1Cl)C(=O)Nc1ccc2c(c1)OCCO2 (stereo not given),"inconclusive: 3.98 µM [activator, single point]"
